Laboratory results taken from the supplement of paper PMC6331611.
± gives the standard deviation of the averaged measurements. The full ranking holds about 1,600 compounds; the median of “normalized intracellular growth (luminescence, IQM-normalized) in RAW264.7 macrophages” is about 1, and the lowest 2% start at about 0.43. The list shows a part of the results.

Tested on: Salmonella enterica serovar Typhimurium SL1344
Assay: normalized intracellular growth (luminescence, IQM-normalized) in RAW264.7 macrophages (fraction of plate interquartile mean); higher = more bacterial growth (less inhibition)
Conditions: 10 µM

Structure (SMILES) | normalized intracellular growth (time point: T3 (3 h)) | normalized intracellular growth (time point: Tfinal (~6 h))
CC(=O)O[C@H]1C[C@H](O[C@H]2[C@@H](O)C[C@H](O[C@H]3[C@@H](O)C[C@H](O[C@H]4CC[C@@]5(C)[C@H](CC[C@@H]6[C@@H]5C[C@@H](O)[C@]5(C)[C@@H](C7=CC(=O)OC7)CC[C@]65O)C4)O[C@@H]3C)O[C@@H]2C)O[C@H](C)[C@H]1O[C@@H]1O[C@H](CO)[C@@H](O)[C@H](O)[C@H]1O | 0.935 ± 0.04 | 1.09 ± 0.086
CCN1C[C@]2(COC)[C@H](O)C[C@H](OC)[C@@]34[C@@H]5C[C@@]6(O)[C@H](OC(=O)c7ccccc7)[C@@H]5[C@@](OC(C)=O)([C@@H]([C@H](OC)[C@H]23)[C@@H]14)[C@@H](O)[C@@H]6OC | 0.971 ± 0.025 | 0.837 ± 0.045
O=[N+]([O-])c1cc([As](=O)(O)O)ccc1O | 0.97 ± 0.025 | 0.915 ± 0.15
COc1ccc(O)c(C(C)(C)C)c1.COc1ccc(O)cc1C(C)(C)C | 0.982 ± 0.05 | 0.941 ± 0.028
C[C@]12CC[C@@H]3c4ccc(OC(=O)N(CCCl)CCCl)cc4CC[C@H]3[C@@H]1CC[C@@H]2O | 0.99 ± 0.045 | 1.17 ± 0.083
[N-]=[N+]=CC(=O)OC[C@H](N)C(=O)O | 0.882 ± 0.029 | 1.03 ± 0.032
N=C1NC(=O)N2CC12 (stereo not drawn) | 1.051 ± 0.0073 | 0.853 ± 0.12
C[C@@H]1O[C@@H](O[C@H]2C[C@@H](O)[C@]3(CO)[C@H]4[C@H](O)C[C@]5(C)[C@@H](C6=CC(=O)OC6)CC[C@]5(O)[C@@H]4CC[C@]3(O)C2)[C@H](O)[C@H](O)[C@H]1O | 1.01 ± 0.012 | 0.991 ± 0.034
CCC1(c2ccc(N)cc2)CCC(=O)NC1=O (stereo not drawn) | 0.974 ± 0.021 | 1.07 ± 0.055
CCN(C)C(=O)Oc1cccc([C@H](C)N(C)C)c1 | 1.01 ± 0.022 | 0.504 ± 0.27
CC[C@@H](c1cccc(O)c1)[C@@H](C)CN(C)C | 1.09 ± 0.081 | 0.708 ± 0.38
CN(C)C(=O)Oc1cc(OC(=O)N(C)C)cc(C(O)CNC(C)(C)C)c1 (stereo not drawn) | 0.943 ± 0.049 | 0.833 ± 0.14
CCn1cc(C(=O)O)c(=O)c2cc3c(cc21)OCO3 | 0.923 ± 0.032 | 0.192 ± 0.011
C[N+]1(C)[C@@H]2C[C@@H](OC(=O)[C@H](CO)c3ccccc3)C[C@H]1[C@@H]1O[C@@H]12 | 1.02 ± 0.041 | 1.15 ± 0.05
C#CC(C)(O)CC (stereo not drawn) | 0.971 ± 0.038 | 0.758 ± 0.24
C[N+]1(C)CCCC(OC(=O)C(O)(c2ccccc2)c2ccccc2)C1 (stereo not drawn) | 1.03 ± 0.032 | 0.939 ± 0.09
N[C@@H]1C[C@H]1c1ccccc1.N[C@H]1C[C@@H]1c1ccccc1 | 0.984 ± 0.028 | 1.01 ± 0.045
Oc1ccc(Cl)cc1Cc1cc(Cl)ccc1O | 1.03 ± 0.02 | 0.859 ± 0.13
CC(O)CN1CCN(CC(=O)[O-])CCN(CC(=O)[O-])CCN(CC(=O)[O-])CC1.[Gd+3] (stereo not drawn) | 0.946 ± 0.083 | 1.23 ± 0.098
CCCC(C)(COC(N)=O)COC(=O)NC(C)C (stereo not drawn) | 1.02 ± 0.029 | 0.918 ± 0.025

Structure (SMILES) | normalized intracellular growth (time point: T3 (3 h)) | normalized intracellular growth (time point: Tfinal (~6 h))
COC(C)(C)CCC[C@H](C)C/C=C/C(C)=C/C(=O)OC(C)C | 1.02 ± 0.024 | 0.902 ± 0.27
COc1ccc(OC)c(C(O)C(C)N)c1 (stereo not drawn) | 1.11 ± 0.087 | 0.961 ± 0.058
CC([C@H](O)c1ccccc1)N(C)C (stereo partly drawn) | 0.977 ± 0.096 | 1.08 ± 0.12
CCC(=O)O[C@H]1CC[C@H]2[C@@H]3CCC4=CC(=O)CC[C@]4(C)[C@H]3CC[C@]12C | 0.96 ± 0.038 | 1.12 ± 0.042
CCC1(CC)C(=O)NC(=O)NC1=O | 0.979 ± 0.094 | 0.778 ± 0.078
O=C1CCO1 | 0.995 ± 0.052 | 0.884 ± 0.13
c1ccc2c(c1)sc1ccccc12 | 1.03 ± 0.065 | 0.916 ± 0.1
O=P1(N(CCCl)CCCl)NCCCO1 (stereo not drawn) | 1 ± 0.031 | 0.925 ± 0.072
CN1C(=O)CCS(=O)(=O)C1c1ccc(Cl)cc1 (stereo not drawn) | 1.02 ± 0.056 | 0.864 ± 0.13
CC(=O)NC1CCSC1=O (stereo not drawn) | 1.05 ± 0.023 | 1.13 ± 0.094
CNC(=O)Oc1ccccc1OC(C)C | 1.02 ± 0.052 | 1.01 ± 0.13
C=CCC1(C(C)CCC)C(=O)NC(=S)NC1=O (stereo not drawn) | 0.956 ± 0.066 | 0.965 ± 0.1
CCCCCCCCCCCCCCCC[n+]1ccccc1 | 1.121 ± 0.0093 | 1.31 ± 0.11
CCOP(=S)(OCC)Oc1nc(Cl)c(Cl)cc1Cl | 1.03 ± 0.054 | 0.764 ± 0.061
CCOc1cc(C=O)ccc1O | 0.976 ± 0.037 | 0.93 ± 0.11
C=C1C[C@@H]2[C@H](CC[C@]3(C)C(=O)CC[C@@H]23)[C@@]2(C)C=CC(=O)C=C12 | 1 ± 0.047 | 1.05 ± 0.07
NP(N)(=O)NC(=O)c1ccc(F)cc1 | 1.09 ± 0.025 | 1.04 ± 0.11
CN1CCc2cc3c(cc2C1O)OCO3 (stereo not drawn) | 1.11 ± 0.075 | 0.972 ± 0.2
COc1ccc(C(CN(C)C)C2(O)CCCCC2)cc1 (stereo not drawn) | 1.01 ± 0.029 | 0.758 ± 0.24
CNC(=O)Oc1ccc2c(c1)[C@]1(C)CCN(C)[C@@H]1N2C | 0.728 ± 0.068 | 0.913 ± 0.051

Structure (SMILES) | normalized intracellular growth (time point: T3 (3 h)) | normalized intracellular growth (time point: Tfinal (~6 h))
CN(C)C(=O)Oc1cccc([N+](C)(C)C)c1 | 0.998 ± 0.041 | 0.93 ± 0.015
CN1[C@H]2C[C@H](OC(=O)[C@H](CO)c3ccccc3)C[C@@H]1[C@@H](O)C2 | 1.01 ± 0.025 | 0.993 ± 0.025
CNC(C)(C)Cc1ccccc1 | 1.07 ± 0.097 | 1.22 ± 0.041
CCOP(=S)(OCC)Oc1cc(C)nc(C(C)C)n1 | 0.931 ± 0.039 | 0.917 ± 0.16
C[C@]12CCC(=O)C(O)=C1CC[C@@H]1[C@@H]2CC[C@]2(C)C(=O)CC[C@@H]12 | 0.9688 ± 0.0047 | 1.01 ± 0.081
CNCC(O)c1ccc(O)cc1 (stereo not drawn) | 0.949 ± 0.04 | 0.946 ± 0.048
CC(C)C[C@H]1C(=O)N2CCC[C@H]2[C@]2(O)O[C@](NC(=O)[C@@H]3C=C4c5cccc6[nH]c(Br)c(c56)C[C@H]4N(C)C3)(C(C)C)C(=O)N12 | 0.978 ± 0.041 | 0.934 ± 0.071
CN1[C@@H]2CC[C@H]1C[C@@H](OC(=O)C(CO)c1ccccc1)C2 (stereo partly drawn) | 1.05 ± 0.06 | 1.03 ± 0.12
Nc1ccc([As](=O)(O)O)cc1 | 0.997 ± 0.034 | 0.735 ± 0.11
CCCCCCCCC(=O)NCc1ccc(O)c(OC)c1 | 1.01 ± 0.035 | 0.99 ± 0.064
O=[N+]([O-])OCC(CO[N+](=O)[O-])O[N+](=O)[O-] | 1.01 ± 0.044 | 0.68 ± 0.22
NCCCNCCSP(=O)(O)O | 0.96 ± 0.035 | 1 ± 0.073
C#CCN(C)[C@H](C)Cc1ccccc1 | 1.1 ± 0.025 | 0.976 ± 0.32
C[C@@H]1O[C@@H](O[C@@H]2C=C3CC[C@@H]4[C@H](CC[C@]5(C)[C@@H](c6ccc(=O)oc6)CC[C@]45O)[C@@]3(C)CC2)[C@H](O)[C@H](O)[C@H]1O | 1.01 ± 0.031 | 0.813 ± 0.17
CN(C)C(=O)Oc1ccc[n+](C)c1 | 0.796 ± 0.015 | 0.459 ± 0.0048
CC(=O)Nc1cc([As](=O)(O)O)ccc1O | 1.1 ± 0.073 | 1.09 ± 0.02
O=c1[nH]c2ccccc2n1C1CCN(CCCC(c2ccc(F)cc2)c2ccc(F)cc2)CC1 | 0.967 ± 0.011 | 1.1 ± 0.027
CC(=O)[O][Hg][c]1ccccc1 | 0.575 ± 0.093 | 0.336 ± 0.15
CN1C[C@H](C(=O)N[C@]2(C)O[C@@]3(O)[C@@H]4CCCN4C(=O)[C@H](Cc4ccccc4)N3C2=O)C=C2c3cccc4[nH]cc(c34)C[C@H]21 | 1.03 ± 0.02 | 0.769 ± 0.38

Part of the list above in a different format.
Structure (SMILES),normalized intracellular growth (time point: T3 (3 h)),normalized intracellular growth (time point: Tfinal (~6 h))
NCCCNCCSP(=O)(O)O,0.96 ± 0.035,1 ± 0.073
CN(C)C(=O)Oc1ccc[n+](C)c1,0.796 ± 0.015,0.459 ± 0.0048
O=c1[nH]c2ccccc2n1C1CCN(CCCC(c2ccc(F)cc2)c2ccc(F)cc2)CC1,0.967 ± 0.011,1.1 ± 0.027
